Data as given in PubChem BioAssay AID652243 (Drosophila RNAi Screening Center, 2013)
In all, the deposit lists about 24,000 reagents; this is an unselected part of those with a known target gene and a result. Of all reagents, 246 (1%) got an active call. 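Plates not normalised; calls are printed but the firefly/Renilla ratio behind them is not deposited; fold cut for lowering reported inconsistently.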 Raw values are not corrected between plates. Names joined by + are all predicted targets of the reagent. No sequences are given here. Not stated in the record: the amount of reagent.

Test: 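Fly genes required for human androgen receptor driven transcription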 (primary screen)
Cells: Drosophila S2R+ cells
Knock-down reagent: long dsRNA against Drosophila genes
Duration: 72 h (48 h, then 24 h hormone)
Challenge: synthetic androgen R1881 at 10 nM for 24 h
Measured: 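Firefly light from an androgen-responsive reporter and Renilla control light per well, raw and unnormalised, for each of two replicates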
Reading the numbers: firefly reporter light: higher = more light from androgen-responsive reporter; Renilla control light: higher = more constitutive control signal (cell number, transfection)
Hit rule: 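Across duplicate plates, a knock-down whose log firefly/Renilla ratio shifted a set fold down or up from the GFP/LacZ control mean was a hit; the downward cut appears as both 1.5 and 3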
Calls: active = hit: reporter lowered or raised; inactive = no hit

Gene | PubChem SID | firefly reporter light, replicate 1 | firefly reporter light, replicate 2 | Renilla control light, replicate 1 | Renilla control light, replicate 2 | call
Fili | SID104183924 | 1.07e5 | 1.13e5 | 1.25e6 | 1.08e6 | inactive
Fili | SID104184237 | 2.07e5 | 2.33e5 | 1.44e6 | 1.06e6 | inactive
CG8066 | SID104196166 | 2.10e5 | 2.16e5 | 2.46e6 | 1.98e6 | inactive
CG8066 | SID104203311 | 7.08e5 | 6.86e5 | 7.90e5 | 9.05e5 | inactive
Dnz1 | SID104183109 | 9.41e5 | 8.45e5 | 2.34e6 | 1.80e6 | inactive
Dnz1 | SID104203483 | 5.31e5 | 5.87e5 | 4.73e5 | 6.63e5 | inactive
CG11596 | SID104198332 | 1.09e5 | 1.09e5 | 9.43e5 | 7.27e5 | inactive
CG11596 | SID104207187 | 3.82e5 | 4.72e5 | 1.41e6 | 1.39e6 | inactive
mbo | SID104195915 | 85623 | 96156 | 4.96e5 | 8.94e5 | inactive
dgt3 | SID104184141 | 9.75e5 | 7.93e5 | 1.64e6 | 1.94e6 | inactive
CG17883 | SID104187630 | 1.55e5 | 1.02e5 | 1.31e6 | 1.40e6 | inactive
Cyp6a15Psi | SID104187169 | 4.45e5 | 5.44e5 | 2.04e6 | 2.01e6 | inactive
Cyp6a15Psi | SID104206860 | 2.40e5 | 5.52e5 | 1.21e6 | 1.87e6 | inactive
CG34302 | SID104216399 | 1.09e6 | 9.93e5 | 1.88e6 | 1.75e6 | inactive
gcm | SID104183328 | 1.42e5 | 81934 | 1.41e6 | 9.11e5 | inactive
Pgant1 | SID104186887 | 85028 | 1.25e5 | 1.98e6 | 1.98e6 | inactive
Taz | SID104187496 | 4.59e5 | 5.34e5 | 2.71e6 | 2.58e6 | inactive
Taz | SID104202036 | 8.08e5 | 9.44e5 | 1.88e6 | 2.19e6 | inactive
Taz | SID104205644 | 3.52e5 | 2.10e5 | 7.45e5 | 3.27e5 | inactive
spo | SID104190919 | 1.32e5 | 1.72e5 | 1.61e6 | 2.17e6 | inactive
CG5846 | SID104182696 | 6.27e5 | 7.50e5 | 1.21e6 | 1.45e6 | inactive
CG13186 | SID104186103 | 3.38e5 | 2.23e5 | 2.34e6 | 2.42e6 | inactive
CG2574 | SID104199654 | 4.52e5 | 4.10e5 | 3.11e6 | 2.80e6 | inactive
Tehao | SID104183241 | 1.63e5 | 1.34e5 | 1.24e6 | 1.28e6 | inactive
CG32373 | SID104188687 | 77469 | 86201 | 3.48e5 | 3.59e5 | inactive
CG32373 | SID104214560 | – | – | – | – | inactive
CG32373 | SID104214561 | – | – | – | – | inactive
CG15725 | SID104199483 | 5.35e5 | 6.26e5 | 2.28e6 | 3.19e6 | inactive
CG14760 | SID104186287 | 1.66e5 | 1.37e5 | 1.61e6 | 1.36e6 | inactive
CG14760 | SID104202960 | 6.43e5 | 6.94e5 | 4.34e5 | 4.41e5 | inactive
hts | SID104206641 | 4.68e5 | 3.17e5 | 1.54e6 | 1.25e6 | inactive
hts | SID104216438 | 9.34e5 | 7.17e5 | 2.85e6 | 2.21e6 | inactive
CG6179 | SID104199765 | 1.04e6 | 9.98e5 | 3.70e6 | 3.16e6 | inactive
CG1492 | SID104199397 | 3.78e5 | 3.80e5 | 8.65e5 | 7.33e5 | inactive
Rs1 | SID104185737 | 1.19e6 | 5.94e5 | 1.98e6 | 9.65e5 | inactive
Rs1 | SID104205136 | 4.26e5 | 4.54e5 | 7.06e5 | 7.27e5 | inactive
CG14024 | SID104180660 | 3.23e5 | 3.38e5 | 9.31e5 | 8.29e5 | inactive
CG14024 | SID104182146 | 4.60e5 | 4.51e5 | 1.03e6 | 1.11e6 | inactive
CG5973 | SID104182710 | 1.30e6 | 1.24e6 | 2.51e6 | 2.57e6 | inactive
Hmg-2 | SID104184346 | 1.17e6 | 9.02e5 | 1.52e6 | 1.38e6 | inactive
Hmg-2 | SID104203901 | 9.17e5 | 8.45e5 | 1.12e6 | 1.17e6 | inactive
CG4712 | SID104186674 | 1.66e5 | 1.07e5 | 1.26e6 | 1.40e6 | inactive
eEF1alpha1 | SID104187213 | 2.30e5 | 2.04e5 | 1.46e6 | 1.31e6 | inactive
eEF1alpha1 | SID104203679 | 4.00e5 | 3.07e5 | 3.61e5 | 3.24e5 | inactive
Boh1 | SID104194279 | 97418 | 62218 | 6.25e5 | 6.66e5 | inactive

Records above whose gene name starts with D or d (3):
Gene | PubChem SID | firefly reporter light, replicate 1 | firefly reporter light, replicate 2 | Renilla control light, replicate 1 | Renilla control light, replicate 2 | call
Dnz1 | SID104183109 | 9.41e5 | 8.45e5 | 2.34e6 | 1.80e6 | inactive
Dnz1 | SID104203483 | 5.31e5 | 5.87e5 | 4.73e5 | 6.63e5 | inactive
dgt3 | SID104184141 | 9.75e5 | 7.93e5 | 1.64e6 | 1.94e6 | inactive

Further records follow:
Gene | PubChem SID | firefly reporter light, replicate 1 | firefly reporter light, replicate 2 | Renilla control light, replicate 1 | Renilla control light, replicate 2 | call
CG3168 | SID104198079 | 60888 | 69531 | 7.15e5 | 4.64e5 | inactive
CG3168 | SID104204027 | 5.85e5 | 6.07e5 | 5.15e5 | 6.30e5 | inactive
Rbfox1 | SID104188826 | 4.11e5 | 4.92e5 | 2.69e6 | 2.48e6 | inactive
Rbfox1 | SID104201146 | 1.15e6 | 1.10e6 | 2.06e6 | 2.08e6 | inactive
Rbfox1 | SID104202349 | 7.78e5 | 8.75e5 | 1.69e6 | 2.12e6 | inactive
Rbfox1 | SID104204319 | 6.39e5 | 6.07e5 | 8.44e5 | 5.98e5 | inactive
MFS12 | SID104187060 | 7.96e5 | 3.73e5 | 1.98e6 | 1.06e6 | inactive
CG34448 | SID104205140 | 3.05e5 | 3.25e5 | 6.15e5 | 6.85e5 | inactive
CG14042 + SP555 | SID104182159 | 35057 | 19892 | 3.11e5 | 2.55e5 | inactive
CG14042 + SP555 | SID104183220 | 1.49e5 | 2.26e5 | 2.77e6 | 2.17e6 | inactive
insb | SID104186787 | 68586 | 68410 | 1.63e6 | 1.63e6 | inactive
insb | SID104203173 | 1.00e6 | 1.04e6 | 1.12e6 | 1.20e6 | inactive
CG3308 | SID104195266 | 44426 | 41151 | 4.27e5 | 4.88e5 | inactive
wuho | SID104197893 | 1.98e5 | 3.34e5 | 2.77e6 | 3.42e6 | inactive
wuho | SID104206494 | 7.60e5 | 4.81e5 | 3.25e6 | 1.62e6 | inactive
CG10311 | SID104194020 | 1.92e5 | 1.99e5 | 2.60e6 | 2.55e6 | inactive
veli | SID104196068 | 1.70e5 | 2.44e5 | 1.76e6 | 2.53e6 | inactive
veli | SID104206416 | 7.18e5 | 4.12e5 | 2.68e6 | 1.48e6 | inactive
CG34203 | SID104216472 | 9.01e5 | 8.49e5 | 1.61e6 | 1.61e6 | inactive
tor | SID104187499 | 2.83e5 | 3.60e5 | 2.22e6 | 1.38e6 | inactive
tor | SID104214199 | – | – | – | – | inactive
tor | SID104214200 | – | – | – | – | inactive
Eig71Eh | SID104190947 | 3.07e5 | 2.16e5 | 3.02e6 | 2.76e6 | inactive
rept | SID104191180 | 2.54e5 | 2.22e5 | 1.82e6 | 1.65e6 | inactive
rept | SID104205727 | 4.43e5 | 3.39e5 | 5.20e5 | 4.18e5 | inactive
Ir7b | SID104197801 | 2.20e5 | 2.85e5 | 2.58e6 | 2.47e6 | inactive
CG32687 | SID104198002 | 4.08e5 | 3.08e5 | 4.82e6 | 3.26e6 | inactive
CG32687 | SID104198029 | 3.40e5 | 3.18e5 | 2.05e6 | 2.73e6 | inactive
CG32687 | SID104214655 | – | – | – | – | inactive
